Measurements published in publication PMC5682686.
No constants are given. Whether binding was seen depends on the method and setting. In cells and extracts the contact can be indirect. Some binding calls cover weakened binding; strength is not graded here.

Chains of the proteins cited; added tags and fusions are not shown.
UniProt Q8K1M6: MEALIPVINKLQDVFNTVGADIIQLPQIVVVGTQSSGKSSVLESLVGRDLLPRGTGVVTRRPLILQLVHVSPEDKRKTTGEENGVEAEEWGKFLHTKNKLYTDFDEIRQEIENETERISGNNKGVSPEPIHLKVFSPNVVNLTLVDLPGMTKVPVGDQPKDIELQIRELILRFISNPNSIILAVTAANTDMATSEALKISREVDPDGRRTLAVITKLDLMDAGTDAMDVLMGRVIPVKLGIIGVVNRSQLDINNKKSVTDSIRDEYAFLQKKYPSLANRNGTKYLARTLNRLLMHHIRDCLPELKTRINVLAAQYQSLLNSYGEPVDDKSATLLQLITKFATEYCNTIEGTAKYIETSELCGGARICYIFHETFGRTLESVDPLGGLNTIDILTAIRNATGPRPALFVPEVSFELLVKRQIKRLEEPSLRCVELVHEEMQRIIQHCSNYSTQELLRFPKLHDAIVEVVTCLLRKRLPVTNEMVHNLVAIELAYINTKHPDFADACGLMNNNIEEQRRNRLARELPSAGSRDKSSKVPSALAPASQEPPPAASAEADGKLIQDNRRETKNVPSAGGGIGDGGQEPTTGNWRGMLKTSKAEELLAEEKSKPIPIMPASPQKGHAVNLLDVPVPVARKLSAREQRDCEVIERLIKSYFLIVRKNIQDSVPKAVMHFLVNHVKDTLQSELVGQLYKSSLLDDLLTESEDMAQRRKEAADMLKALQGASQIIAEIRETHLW
UniProt O00429: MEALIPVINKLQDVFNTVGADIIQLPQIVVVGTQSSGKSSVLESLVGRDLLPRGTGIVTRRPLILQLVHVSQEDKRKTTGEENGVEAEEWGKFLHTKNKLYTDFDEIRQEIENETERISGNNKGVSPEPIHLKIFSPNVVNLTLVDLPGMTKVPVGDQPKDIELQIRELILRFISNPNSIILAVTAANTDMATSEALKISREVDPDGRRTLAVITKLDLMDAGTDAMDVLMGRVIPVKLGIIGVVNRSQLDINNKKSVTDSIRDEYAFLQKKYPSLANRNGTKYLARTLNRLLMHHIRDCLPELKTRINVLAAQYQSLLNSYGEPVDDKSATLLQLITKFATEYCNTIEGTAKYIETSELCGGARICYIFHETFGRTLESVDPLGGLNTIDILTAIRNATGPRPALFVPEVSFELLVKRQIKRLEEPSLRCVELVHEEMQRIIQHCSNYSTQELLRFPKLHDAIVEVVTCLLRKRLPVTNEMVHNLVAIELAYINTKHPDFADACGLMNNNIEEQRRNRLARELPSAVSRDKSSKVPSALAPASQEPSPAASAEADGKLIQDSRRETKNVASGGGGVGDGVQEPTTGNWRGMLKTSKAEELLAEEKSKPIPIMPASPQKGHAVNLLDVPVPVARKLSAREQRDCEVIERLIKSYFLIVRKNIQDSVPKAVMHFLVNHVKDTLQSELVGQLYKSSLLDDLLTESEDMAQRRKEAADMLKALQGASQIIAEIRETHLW
UniProt P00520: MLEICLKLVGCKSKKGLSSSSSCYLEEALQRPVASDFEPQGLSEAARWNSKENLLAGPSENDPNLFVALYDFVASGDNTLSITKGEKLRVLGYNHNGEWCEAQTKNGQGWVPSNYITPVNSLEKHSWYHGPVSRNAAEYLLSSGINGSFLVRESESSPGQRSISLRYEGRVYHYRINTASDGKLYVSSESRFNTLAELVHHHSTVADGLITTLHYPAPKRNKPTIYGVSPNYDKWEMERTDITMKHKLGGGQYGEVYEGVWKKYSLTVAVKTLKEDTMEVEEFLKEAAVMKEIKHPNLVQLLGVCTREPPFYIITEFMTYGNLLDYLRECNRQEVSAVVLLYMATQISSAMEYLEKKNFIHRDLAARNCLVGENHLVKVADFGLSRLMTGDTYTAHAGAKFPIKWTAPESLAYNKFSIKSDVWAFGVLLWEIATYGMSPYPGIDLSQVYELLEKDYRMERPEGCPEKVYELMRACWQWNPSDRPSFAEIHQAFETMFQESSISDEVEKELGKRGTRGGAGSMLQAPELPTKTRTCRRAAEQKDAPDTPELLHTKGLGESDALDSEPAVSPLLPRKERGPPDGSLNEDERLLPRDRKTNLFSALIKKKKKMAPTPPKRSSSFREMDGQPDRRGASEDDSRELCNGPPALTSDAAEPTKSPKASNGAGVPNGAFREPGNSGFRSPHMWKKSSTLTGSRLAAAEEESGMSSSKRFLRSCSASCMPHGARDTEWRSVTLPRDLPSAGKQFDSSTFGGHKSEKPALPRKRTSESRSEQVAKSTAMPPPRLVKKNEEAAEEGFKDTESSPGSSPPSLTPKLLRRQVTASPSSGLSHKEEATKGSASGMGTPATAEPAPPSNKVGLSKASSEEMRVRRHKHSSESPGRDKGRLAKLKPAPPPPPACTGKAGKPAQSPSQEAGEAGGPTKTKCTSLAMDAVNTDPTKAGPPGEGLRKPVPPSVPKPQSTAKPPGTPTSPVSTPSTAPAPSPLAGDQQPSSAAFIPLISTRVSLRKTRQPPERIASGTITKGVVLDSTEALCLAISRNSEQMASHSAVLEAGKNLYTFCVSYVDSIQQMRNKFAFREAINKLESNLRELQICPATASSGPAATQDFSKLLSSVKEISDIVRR
UniProt P00519: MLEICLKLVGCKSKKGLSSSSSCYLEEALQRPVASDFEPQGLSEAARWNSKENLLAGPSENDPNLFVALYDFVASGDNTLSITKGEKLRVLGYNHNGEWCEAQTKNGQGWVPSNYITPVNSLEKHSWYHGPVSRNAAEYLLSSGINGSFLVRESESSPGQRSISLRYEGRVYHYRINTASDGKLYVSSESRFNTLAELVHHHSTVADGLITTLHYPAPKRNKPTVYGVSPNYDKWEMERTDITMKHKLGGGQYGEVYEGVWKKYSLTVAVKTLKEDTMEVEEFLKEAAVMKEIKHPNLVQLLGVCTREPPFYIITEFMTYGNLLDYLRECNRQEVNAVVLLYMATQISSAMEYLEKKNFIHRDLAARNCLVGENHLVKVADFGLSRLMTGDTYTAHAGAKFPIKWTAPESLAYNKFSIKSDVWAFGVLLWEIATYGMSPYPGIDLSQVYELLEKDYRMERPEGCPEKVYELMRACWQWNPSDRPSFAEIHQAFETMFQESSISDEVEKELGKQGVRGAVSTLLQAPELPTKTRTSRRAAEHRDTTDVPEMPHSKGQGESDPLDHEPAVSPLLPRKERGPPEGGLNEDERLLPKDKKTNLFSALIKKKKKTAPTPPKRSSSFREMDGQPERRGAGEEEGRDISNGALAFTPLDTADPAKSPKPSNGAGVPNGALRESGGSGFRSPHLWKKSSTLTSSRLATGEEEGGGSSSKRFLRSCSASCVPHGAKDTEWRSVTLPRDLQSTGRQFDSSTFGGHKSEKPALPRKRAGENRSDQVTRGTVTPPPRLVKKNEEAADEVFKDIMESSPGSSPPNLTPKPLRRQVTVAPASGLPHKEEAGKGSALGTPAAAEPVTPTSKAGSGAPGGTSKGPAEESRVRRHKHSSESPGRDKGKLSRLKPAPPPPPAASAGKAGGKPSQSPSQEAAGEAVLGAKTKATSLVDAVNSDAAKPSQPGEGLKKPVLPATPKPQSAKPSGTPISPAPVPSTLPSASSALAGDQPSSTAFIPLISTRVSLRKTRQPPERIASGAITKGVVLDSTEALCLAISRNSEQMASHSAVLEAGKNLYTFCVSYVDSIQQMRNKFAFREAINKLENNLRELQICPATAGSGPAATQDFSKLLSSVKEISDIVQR

Experiments:
[1] = target: Dynamin related protein 1 (Drp1) (endogenous, primary cortical neurons) (not stated (endogenous in primary cortical neurons)) (UniProt Q8K1M6); test: co-IP; lysates of primary cortical neurons with or without 100 μM H2O2 for 0.5 h; immunoprecipitated with anti-Drp1 antibody, immunoblot with anti-c-Abl antibody; endogenous proteins
GFP-Drp1 (human) = GFP-Drp1 (human) (UniProt O00429); test: co-IP; lysates of HEK-293T cells transfected with Myc-c-Abl and GFP-Drp1, with or without 1 mM H2O2 for 0.5 h; immunoprecipitated with anti-GFP antibody, immunoblot with anti-Myc antibody

| Substance | binding [1] | binding (GFP-Drp1 (human)) |
| --- | --- | --- |
| c-Abl (endogenous, primary cortical neurons) (from UniProt P00520 1-1123) (enzyme) | binds | – |
| Myc-c-Abl (from UniProt P00519 1-1130) (enzyme) | – | binds |
